Article doi:10.1101/2024.07.09.602672
No constants are given. Whether binding was seen depends on the method and setting. Some results given as binding are weak or reduced against the parent protein; the word gives no strength.

Amino acid sequences for entries named in this document (tags omitted). Residues count along the entry.
UniProt F5HB81, residues 27-845: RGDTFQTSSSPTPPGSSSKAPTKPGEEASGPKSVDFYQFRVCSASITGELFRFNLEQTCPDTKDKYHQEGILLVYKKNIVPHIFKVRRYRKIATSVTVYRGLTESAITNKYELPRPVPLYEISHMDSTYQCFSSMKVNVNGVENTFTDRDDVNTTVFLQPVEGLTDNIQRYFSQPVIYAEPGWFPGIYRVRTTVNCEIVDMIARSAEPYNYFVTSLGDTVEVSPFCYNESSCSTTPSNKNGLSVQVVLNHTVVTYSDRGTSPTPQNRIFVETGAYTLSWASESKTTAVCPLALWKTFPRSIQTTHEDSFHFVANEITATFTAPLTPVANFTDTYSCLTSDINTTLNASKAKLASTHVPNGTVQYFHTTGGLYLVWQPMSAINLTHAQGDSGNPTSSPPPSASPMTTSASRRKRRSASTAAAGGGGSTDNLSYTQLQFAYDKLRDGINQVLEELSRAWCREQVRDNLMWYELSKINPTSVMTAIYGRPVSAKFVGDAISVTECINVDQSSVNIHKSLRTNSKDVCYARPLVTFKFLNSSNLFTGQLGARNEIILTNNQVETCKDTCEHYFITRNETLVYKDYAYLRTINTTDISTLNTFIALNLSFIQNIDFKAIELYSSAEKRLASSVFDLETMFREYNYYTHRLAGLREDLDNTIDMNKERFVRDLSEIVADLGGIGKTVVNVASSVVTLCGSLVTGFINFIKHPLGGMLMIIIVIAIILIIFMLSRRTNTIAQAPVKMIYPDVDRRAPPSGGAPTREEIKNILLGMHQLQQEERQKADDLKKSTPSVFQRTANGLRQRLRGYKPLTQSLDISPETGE

Molecular target: KSHV fusion protein gB (postfusion conformation, on the virion envelope) (Kaposi's sarcoma-associated herpesvirus (KSHV), BAC16) (UniProt F5HB81)
Test: cryo-EM structure

Substance: KSHV fusion protein gB (postfusion conformation, on the virion envelope) (from UniProt F5HB81 27-845)
- binding: binds
